Test results reported in publication PMC2904376.
Results are given in words; binding and its absence hold for the method and conditions named. Binding seen in cells or lysates may run through a third protein. Binding can be weak; no strength is given.

Protein sequences, listed by entry. Tags and fused reporters are not part of them. Lines headed by an entry give the natural chain unless they say otherwise; changes in a name come on top. Residues count along the entry.
UniProt Q07954, residues 3944-4544: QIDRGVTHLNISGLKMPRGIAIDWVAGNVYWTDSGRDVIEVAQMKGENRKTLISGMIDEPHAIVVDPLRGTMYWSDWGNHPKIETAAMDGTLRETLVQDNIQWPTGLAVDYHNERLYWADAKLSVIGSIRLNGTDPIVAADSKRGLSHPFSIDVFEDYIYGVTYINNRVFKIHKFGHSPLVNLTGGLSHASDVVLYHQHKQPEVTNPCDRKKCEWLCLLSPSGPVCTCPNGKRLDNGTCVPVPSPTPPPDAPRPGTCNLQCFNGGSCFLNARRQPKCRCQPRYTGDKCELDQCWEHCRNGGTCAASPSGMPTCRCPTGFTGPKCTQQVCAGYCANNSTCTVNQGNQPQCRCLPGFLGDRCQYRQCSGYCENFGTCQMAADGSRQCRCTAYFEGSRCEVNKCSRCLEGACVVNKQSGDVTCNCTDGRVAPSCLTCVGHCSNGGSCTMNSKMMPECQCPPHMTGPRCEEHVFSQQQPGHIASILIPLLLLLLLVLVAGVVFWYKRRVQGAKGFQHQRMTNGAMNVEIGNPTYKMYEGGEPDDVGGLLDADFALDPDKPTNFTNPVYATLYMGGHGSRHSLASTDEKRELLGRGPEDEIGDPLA
UniProt P67775: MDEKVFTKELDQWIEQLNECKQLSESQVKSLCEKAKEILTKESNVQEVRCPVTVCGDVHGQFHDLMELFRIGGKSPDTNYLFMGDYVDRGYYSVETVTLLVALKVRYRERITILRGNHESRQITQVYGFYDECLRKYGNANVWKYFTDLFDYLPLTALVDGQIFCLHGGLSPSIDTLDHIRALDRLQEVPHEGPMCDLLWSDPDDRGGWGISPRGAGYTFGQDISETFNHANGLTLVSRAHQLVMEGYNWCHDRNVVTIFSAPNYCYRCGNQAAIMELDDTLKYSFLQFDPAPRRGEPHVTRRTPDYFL

Molecular target: low-density lipoprotein receptor-related protein-1 (LRP-1) β-chain (human (endogenous in FTC133)) (UniProt Q07954)
Assay: co-IP; LRP-1-containing complexes precipitated with anti-LRP-1 α-chain antibody (8G1) and protein G-Sepharose from 500 µg FTC133 cell extract (10 mM Tris-HCl pH 7.4, 150 mM NaCl, 5 mM EDTA, 0.1% Triton X-100), 4°C; immunoblot; nonspecific IgGs as negative control

- binding: binds
Substance: PP2A (serine/threonine protein phosphatase 2A) (from UniProt P67775) (enzyme)
